Source: paper PMC5909127, “Optimization of a “bump-and-hole” approach to allele-selective BET bromodomain inhibition” (Chemical Science, 2018)

Key:
Plasma Half-life = conditions: BALB/c, mouse, pH 7.4
Intrinsic Clearance = conditions: mouse liver microsomes
in vitro = conditions: PAMPA, pH 7.4

## CCNC(=O)C[C@@H]1N=C(c2ccc(Cl)cc2)c2cc(OC)ccc2-n2c(C)nnc21 [I-BET762, reference compound]
Plasma Half-life
  half-life at 50 µM: > 3 h
Intrinsic Clearance
  CL int: 1.3 ml min^–1 g^–1
In vitro
  Papp: 2.5 ×10⁻⁶ cm/s
